Paper PMC9758949
These are yes or no findings as the source states them, for the method shown. For some assays here: In cells and extracts the contact can be indirect. Some results given as binding are weak or reduced against the parent protein; the word gives no strength.

The chains behind the UniProt entries cited, without tags or fusion partners.
UniProt P25786: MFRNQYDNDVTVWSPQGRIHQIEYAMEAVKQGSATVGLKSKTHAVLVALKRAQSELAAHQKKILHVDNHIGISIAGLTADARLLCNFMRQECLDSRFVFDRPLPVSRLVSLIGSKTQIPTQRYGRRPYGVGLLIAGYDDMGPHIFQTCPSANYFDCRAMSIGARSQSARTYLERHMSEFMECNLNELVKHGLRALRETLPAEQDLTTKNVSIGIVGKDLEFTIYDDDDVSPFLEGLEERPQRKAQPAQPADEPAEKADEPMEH

B1: malate dehydrogenase 2 (MDH2) (enzyme, UniProt P40926 25-338)
chain: AKVAVLGASGGIGQPLSLLLKNSPLVSRLTLYDIAHTPGVAADLSHIETKAAVKGYLGPEQLPDCLKGCDVVVIPAGVPRKPGMTRDDLFNTNATIVATLTAACAQHCPEAMICVIANPVNSTIPITAEVFKKHGVYNPNKIFGVTTLDIVRANTFVAELKGLDPARVNVPVIGGHAGKTIIPLISQCTPKVDFPQDQLTALTGRIQEAGTEVVKAKAGAGSATLSMAYAGARFVFSLVDAMNGKEGVVECSFVKSQETECTYFSTPLLLGKKGIEKNLGIGKVSSFEEKMISDAIPELKASIKKGEDFVKTLK
B2: recombinant MDH2 (enzyme, UniProt P40926 25-338)
chain: B1 chain

Columns and labels:
[1] = biological target: proteasome subunit alpha type-1 (PSMA1) (human (endogenous in U87 and U251)) (UniProt P25786); assay: co-IP; lysates of U87 and U251 cells, control or overexpressing the lncRNA MDHDH; capture with anti-MDH2, anti-PSMA1 or mouse IgG and protein A/G magnetic beads; blot with anti-MDH2 or anti-PSMA1
[2] = biological target: recombinant PSMA1 (UniProt P25786); assay: co-IP; cell-free system: commercial recombinant MDH2 and PSMA1 instead of cell lysate, with the lncRNA MDHDH; both purified

Row | Binder | binding [1] | binding [2]
1 | B1 | binds | –
2 | B2 | – | binds
